Drawing on publication PMC8863821, this text covers binding for two substances.

Protein sequences, listed by entry. Tags and fused reporters are not part of them.
UniProt O43809: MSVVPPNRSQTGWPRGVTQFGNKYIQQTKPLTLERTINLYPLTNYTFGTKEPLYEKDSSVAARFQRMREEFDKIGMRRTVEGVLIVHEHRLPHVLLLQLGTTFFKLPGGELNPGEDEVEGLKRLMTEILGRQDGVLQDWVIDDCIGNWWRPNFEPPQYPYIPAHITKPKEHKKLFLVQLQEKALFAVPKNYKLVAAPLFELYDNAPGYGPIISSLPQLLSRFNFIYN
UniProt P51114: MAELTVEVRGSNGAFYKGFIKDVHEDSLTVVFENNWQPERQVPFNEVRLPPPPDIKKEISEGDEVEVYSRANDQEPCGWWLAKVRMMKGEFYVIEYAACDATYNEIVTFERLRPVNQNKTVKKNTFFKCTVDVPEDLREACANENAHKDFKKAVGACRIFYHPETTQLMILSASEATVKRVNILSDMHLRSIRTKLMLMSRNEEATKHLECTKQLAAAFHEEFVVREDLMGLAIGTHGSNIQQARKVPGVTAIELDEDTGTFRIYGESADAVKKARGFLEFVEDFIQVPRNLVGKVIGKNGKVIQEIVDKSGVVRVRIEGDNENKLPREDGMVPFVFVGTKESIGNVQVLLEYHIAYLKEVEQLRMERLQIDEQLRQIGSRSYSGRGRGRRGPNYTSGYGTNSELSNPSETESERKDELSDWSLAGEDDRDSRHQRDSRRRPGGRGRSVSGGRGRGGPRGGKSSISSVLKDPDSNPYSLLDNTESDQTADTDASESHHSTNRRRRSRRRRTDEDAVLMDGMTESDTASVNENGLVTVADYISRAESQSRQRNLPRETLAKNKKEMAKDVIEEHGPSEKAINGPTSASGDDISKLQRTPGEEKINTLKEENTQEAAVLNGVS
UniProt Q16630: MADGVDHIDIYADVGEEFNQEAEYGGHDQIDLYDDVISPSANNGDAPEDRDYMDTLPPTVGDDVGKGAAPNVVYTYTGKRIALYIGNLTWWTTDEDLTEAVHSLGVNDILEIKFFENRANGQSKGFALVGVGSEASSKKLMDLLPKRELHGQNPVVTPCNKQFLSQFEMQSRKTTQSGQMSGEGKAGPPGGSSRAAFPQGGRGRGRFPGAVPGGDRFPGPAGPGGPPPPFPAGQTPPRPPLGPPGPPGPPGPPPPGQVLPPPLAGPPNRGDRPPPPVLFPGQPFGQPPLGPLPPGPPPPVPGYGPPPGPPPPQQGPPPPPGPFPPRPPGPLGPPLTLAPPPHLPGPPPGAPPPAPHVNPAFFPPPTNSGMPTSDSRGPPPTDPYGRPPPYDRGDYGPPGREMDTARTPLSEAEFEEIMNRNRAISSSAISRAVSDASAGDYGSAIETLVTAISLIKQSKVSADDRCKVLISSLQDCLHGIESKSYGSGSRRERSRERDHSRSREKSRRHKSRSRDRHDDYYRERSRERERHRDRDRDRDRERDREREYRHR

Test [1] addresses cleavage factor Im 25 (CFIm25) (human (endogenous in T24)) (UniProt O43809). In words: co-IP; co-IP of the CFIm25-interacting complex from T24 cells, western blot. (In western blotting, separated proteins are transferred to a membrane and probed.)
The target of test [2] is Fragile X-related gene 1 (FXR1) (human (endogenous in T24)) (UniProt P51114). As to the kind of experiment: co-IP; T24 cell lysates fractionated by 5-25% glycerol gradient sedimentation, then IP of FXR1 (anti-FXR1) across each fraction, western blot.
For test [3] the target is unchanged. As to the kind of experiment: co-IP; co-IP of the FXR1-interacting complex from T24 cells, western blot.

These are yes or no findings as the source states them, for the method shown. Binding seen in cells or lysates may run through a third protein. Some binding calls cover weakened binding; strength is not graded here.

For “Fragile X-related gene 1 (FXR1) (from UniProt P51114 1-621)”, the binding result in test [1] is on record as “binds”.
Regarding “cleavage factor Im 68 (CFIm68) (from UniProt Q16630 1-551)”, the binding result in test [1], in test [2] and in test [3] was “binds” each time.
